According to PMC4993455:
Results are given in words; binding and its absence hold for the method and conditions named. For some of these results: Binding seen in cells or lysates may run through a third protein. Some entries that bind do so weakly or less than the wild type. Blank lines part the entries; values can stand above or below the substance they belong to.

Sequences of proteins named here, by UniProt entry; tags and fusion partners are left off. A change or cut given only in a name is not applied to a line headed by its entry. A line that says so, or that is headed by a name, gives the form on record, which may keep a tag or linker. Residues count along the entry.
UniProt Q642A0: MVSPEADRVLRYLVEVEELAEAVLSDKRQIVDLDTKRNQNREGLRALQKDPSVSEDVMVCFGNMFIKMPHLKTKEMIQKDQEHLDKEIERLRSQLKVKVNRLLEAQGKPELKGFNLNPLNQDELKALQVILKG
GST-ΔN-PDRG1: residues 26-133 of Q642A0
GST-ΔNC-PDRG1: residues 26-106 of Q642A0
HA-PDRG1 (Q642A0, form named): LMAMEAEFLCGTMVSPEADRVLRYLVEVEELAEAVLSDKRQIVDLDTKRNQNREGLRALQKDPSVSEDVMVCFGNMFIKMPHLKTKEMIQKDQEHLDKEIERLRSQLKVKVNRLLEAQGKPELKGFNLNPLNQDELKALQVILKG
GST-ΔC-PDRG1 (Q642A0, form named): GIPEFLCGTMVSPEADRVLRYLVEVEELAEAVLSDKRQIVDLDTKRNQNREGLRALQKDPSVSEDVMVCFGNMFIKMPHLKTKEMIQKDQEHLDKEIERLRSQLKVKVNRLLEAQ
UniProt P13444: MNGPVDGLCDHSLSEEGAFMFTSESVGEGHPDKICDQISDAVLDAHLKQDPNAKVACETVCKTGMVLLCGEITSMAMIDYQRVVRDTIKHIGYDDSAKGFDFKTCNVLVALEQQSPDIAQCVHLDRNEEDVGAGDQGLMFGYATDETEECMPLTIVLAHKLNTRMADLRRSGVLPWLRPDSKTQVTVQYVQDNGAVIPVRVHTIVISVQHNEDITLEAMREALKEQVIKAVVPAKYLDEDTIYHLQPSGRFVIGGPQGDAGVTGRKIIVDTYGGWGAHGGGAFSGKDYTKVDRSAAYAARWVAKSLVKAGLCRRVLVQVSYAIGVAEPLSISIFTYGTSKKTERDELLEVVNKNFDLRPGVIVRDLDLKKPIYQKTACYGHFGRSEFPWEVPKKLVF

Tests used:
[1] = target: HA-PDRG1 (rat) (UniProt Q642A0); experiment: co-IP; total lysates of CHO and HEK-293T cells transiently cotransfected with pFLAG-MAT and pHA-PDRG1; anti-FLAG M2 Affinity Gel or anti-HA on protein A Sepharose, overnight at 4°C; 50 mM Tris/HCl pH 7.5, 150 mM NaCl, 1 mM EDTA, 1% NP-40, 1 mM DTT
[2] = target: FLAG-MATα1 (rat) (UniProt P13444); experiment: co-IP; nuclear fractions of transiently cotransfected COS-7 and HEK 293T cells; anti-FLAG M2 Affinity Gel overnight at 4°C, blot with anti-HA
[3] = target: FLAG-MATα1 (rat) (UniProt P13444); experiment: co-IP; cytosolic fractions of transiently cotransfected COS-7 and HEK 293T cells; anti-FLAG M2 Affinity Gel overnight at 4°C, blot with anti-HA
[4] = target: FLAG-MATα1 (rat) (UniProt P13444); experiment: SEC; analytical gel filtration of nuclear fractions (100 μl) of HEK 293T cells overexpressing HA-PDRG1, FLAG-MATα1 or both on Superose 12 10/300 GL; fractions analysed by dot-blot
[5] = target: FLAG-MATα1 (rat) (UniProt P13444); experiment: co-IP; total lysates of CHO and HEK-293T cells transiently cotransfected with pFLAG-MAT and pHA-PDRG1; anti-FLAG M2 Affinity Gel or anti-HA on protein A Sepharose, overnight at 4°C; 50 mM Tris/HCl pH 7.5, 150 mM NaCl, 1 mM EDTA, 1% NP-40, 1 mM DTT
[6] = target: methionine adenosyltransferase α1 (MATα1), yeast two-hybrid fusion from pGBKT7-MAT1A (rat) (UniProt P13444); experiment: two-hybrid; AH109 yeast, bait pGBKT7-MAT1A, preys in pACT2 (rat liver Matchmaker cDNA library); growth on high stringency -Ade/-His/-Leu/-Trp SC medium; verified by cotransformation
[7] = target: GST-ΔC-PDRG1 (rat) (UniProt Q642A0); experiment: pull-down; Glutathione-Sepharose loaded with GST-PDRG1 or truncated forms from E. coli extracts and washed; incubated 1 hour at 4°C with E. coli extracts overexpressing MATα1 (500 μg) plus excess GST extract (5 mg); blot with anti-MATα1; only the target purified
[8] = target: GST-ΔN-PDRG1 (rat) (UniProt Q642A0); experiment: as above
[9] = target: GST-ΔNC-PDRG1 (rat) (UniProt Q642A0); experiment: as above

Substance: methionine adenosyltransferase α1 (MATα1), yeast two-hybrid fusion from pGBKT7-MAT1A (from UniProt P13444 1-397) (enzyme)
binding [6]: binds

Substance: recombinant methionine adenosyltransferase α1 (MATα1) (from UniProt P13444 1-397) (enzyme)
binding [7]: binds
binding [8]: binds
binding [9]: binds

Second part, led by results:

binding [1]: binds
Substance: FLAG-MATα1 (from UniProt P13444 1-397) (enzyme)

binding [2]: binds
binding [4]: binds
binding [5]: binds
Substance: HA-PDRG1 (from UniProt Q642A0 1-133)
binding [3]: no binding (condition: in cytosolic fractions)

binding [6]: binds
Substance: p53 and DNA damage-regulated gene 1 protein (PDRG1), yeast two-hybrid prey in pACT2 (from UniProt Q642A0 1-133)
